The record followed here is the supplement of paper PMC12067093, “Discovery and optimisation of a covalent ligand for TRIM25 and its application to targeted protein ubiquitination” (Chemical Science, 2025).

By UniProt entry, the sequences of proteins in these tests, tags left out. Where a name states a change or a piece, a line headed by the entry shows the natural chain unless it says otherwise.
UniProt P21281, whole entry, looked up: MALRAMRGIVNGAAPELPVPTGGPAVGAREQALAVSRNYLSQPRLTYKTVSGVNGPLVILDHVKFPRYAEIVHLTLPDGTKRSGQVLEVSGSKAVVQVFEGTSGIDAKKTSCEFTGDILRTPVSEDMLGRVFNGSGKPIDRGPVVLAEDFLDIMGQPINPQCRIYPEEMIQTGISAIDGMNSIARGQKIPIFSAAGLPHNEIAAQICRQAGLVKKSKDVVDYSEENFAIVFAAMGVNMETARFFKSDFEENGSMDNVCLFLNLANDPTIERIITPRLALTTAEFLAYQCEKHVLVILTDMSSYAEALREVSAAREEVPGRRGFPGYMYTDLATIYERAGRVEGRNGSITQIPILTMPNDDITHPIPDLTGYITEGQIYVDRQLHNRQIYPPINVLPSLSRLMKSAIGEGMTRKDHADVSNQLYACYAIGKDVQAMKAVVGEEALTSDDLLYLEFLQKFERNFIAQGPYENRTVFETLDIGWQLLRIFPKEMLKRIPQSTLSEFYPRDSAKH
UniProt Q13315: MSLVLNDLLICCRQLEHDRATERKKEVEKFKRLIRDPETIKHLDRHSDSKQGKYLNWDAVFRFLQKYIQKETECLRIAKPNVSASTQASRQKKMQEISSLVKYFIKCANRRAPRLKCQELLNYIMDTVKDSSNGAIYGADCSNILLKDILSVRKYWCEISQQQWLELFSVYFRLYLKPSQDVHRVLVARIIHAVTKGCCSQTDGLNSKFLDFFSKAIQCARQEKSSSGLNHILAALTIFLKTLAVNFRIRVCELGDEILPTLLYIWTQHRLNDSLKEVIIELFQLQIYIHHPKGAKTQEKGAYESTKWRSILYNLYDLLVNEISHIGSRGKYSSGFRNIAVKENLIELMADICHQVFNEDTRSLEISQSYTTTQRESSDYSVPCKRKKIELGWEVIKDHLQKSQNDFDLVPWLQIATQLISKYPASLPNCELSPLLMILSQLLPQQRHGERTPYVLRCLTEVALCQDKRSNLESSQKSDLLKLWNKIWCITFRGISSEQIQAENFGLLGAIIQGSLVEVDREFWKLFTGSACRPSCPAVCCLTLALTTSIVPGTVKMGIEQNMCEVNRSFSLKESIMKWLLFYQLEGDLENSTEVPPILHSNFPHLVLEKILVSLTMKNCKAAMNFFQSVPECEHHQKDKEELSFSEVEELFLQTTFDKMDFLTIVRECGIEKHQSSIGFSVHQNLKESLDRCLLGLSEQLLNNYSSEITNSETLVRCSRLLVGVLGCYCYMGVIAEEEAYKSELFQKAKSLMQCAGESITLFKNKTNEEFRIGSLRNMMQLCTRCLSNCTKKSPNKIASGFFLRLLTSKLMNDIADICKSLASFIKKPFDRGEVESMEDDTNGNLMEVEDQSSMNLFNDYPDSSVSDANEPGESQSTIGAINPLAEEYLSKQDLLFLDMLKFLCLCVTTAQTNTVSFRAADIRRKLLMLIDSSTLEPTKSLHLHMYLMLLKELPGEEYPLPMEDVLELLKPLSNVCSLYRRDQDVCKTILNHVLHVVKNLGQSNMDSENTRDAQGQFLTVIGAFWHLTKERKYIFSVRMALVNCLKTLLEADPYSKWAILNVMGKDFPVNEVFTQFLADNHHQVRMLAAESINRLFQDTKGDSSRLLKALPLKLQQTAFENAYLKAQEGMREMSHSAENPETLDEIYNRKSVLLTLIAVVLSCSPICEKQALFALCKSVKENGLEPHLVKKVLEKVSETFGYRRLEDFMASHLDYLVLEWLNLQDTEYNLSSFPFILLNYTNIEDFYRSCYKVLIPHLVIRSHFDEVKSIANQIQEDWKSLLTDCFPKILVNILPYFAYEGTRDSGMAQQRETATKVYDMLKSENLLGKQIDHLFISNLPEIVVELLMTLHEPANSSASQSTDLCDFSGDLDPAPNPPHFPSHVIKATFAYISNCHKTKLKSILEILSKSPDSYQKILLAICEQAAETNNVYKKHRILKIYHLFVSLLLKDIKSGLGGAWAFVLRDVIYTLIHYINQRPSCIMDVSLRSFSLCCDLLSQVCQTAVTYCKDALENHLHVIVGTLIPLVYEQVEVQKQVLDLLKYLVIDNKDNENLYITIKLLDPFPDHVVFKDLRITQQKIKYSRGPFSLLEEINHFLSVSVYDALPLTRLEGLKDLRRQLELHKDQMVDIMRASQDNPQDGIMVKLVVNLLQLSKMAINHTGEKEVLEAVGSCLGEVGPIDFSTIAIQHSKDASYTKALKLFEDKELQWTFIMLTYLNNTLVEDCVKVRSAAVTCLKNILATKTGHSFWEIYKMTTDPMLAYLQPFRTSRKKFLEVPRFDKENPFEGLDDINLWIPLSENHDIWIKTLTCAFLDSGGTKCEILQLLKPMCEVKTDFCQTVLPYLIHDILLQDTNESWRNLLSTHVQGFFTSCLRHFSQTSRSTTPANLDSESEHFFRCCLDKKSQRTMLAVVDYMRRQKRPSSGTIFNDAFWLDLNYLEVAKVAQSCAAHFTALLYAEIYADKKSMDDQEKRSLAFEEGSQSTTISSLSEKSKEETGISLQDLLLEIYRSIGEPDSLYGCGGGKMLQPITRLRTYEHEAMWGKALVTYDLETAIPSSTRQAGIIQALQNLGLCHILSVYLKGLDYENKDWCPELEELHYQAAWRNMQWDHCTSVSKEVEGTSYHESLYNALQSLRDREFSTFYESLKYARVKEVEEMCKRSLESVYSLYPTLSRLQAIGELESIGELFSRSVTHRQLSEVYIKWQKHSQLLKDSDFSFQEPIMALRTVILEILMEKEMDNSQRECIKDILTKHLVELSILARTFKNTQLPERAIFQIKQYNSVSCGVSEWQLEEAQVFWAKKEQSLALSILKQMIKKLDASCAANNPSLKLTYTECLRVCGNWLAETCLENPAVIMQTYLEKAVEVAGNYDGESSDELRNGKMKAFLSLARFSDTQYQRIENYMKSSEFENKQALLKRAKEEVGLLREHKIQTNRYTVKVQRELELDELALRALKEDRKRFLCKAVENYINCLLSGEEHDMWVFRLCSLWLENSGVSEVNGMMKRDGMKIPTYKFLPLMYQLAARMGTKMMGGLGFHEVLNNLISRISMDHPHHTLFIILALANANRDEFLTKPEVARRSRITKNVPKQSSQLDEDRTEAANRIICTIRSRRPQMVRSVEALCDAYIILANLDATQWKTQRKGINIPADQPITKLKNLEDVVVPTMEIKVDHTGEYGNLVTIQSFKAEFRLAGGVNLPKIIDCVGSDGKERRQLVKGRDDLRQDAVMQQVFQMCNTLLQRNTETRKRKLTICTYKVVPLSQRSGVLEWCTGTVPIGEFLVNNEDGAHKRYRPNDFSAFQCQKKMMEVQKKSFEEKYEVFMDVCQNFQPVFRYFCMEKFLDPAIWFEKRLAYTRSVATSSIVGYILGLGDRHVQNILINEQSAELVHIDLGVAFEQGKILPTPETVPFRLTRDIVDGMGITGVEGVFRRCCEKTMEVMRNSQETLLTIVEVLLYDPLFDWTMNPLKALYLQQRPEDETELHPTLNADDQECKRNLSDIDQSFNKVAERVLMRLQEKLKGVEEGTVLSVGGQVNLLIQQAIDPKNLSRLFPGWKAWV
UniProt Q9ULH1: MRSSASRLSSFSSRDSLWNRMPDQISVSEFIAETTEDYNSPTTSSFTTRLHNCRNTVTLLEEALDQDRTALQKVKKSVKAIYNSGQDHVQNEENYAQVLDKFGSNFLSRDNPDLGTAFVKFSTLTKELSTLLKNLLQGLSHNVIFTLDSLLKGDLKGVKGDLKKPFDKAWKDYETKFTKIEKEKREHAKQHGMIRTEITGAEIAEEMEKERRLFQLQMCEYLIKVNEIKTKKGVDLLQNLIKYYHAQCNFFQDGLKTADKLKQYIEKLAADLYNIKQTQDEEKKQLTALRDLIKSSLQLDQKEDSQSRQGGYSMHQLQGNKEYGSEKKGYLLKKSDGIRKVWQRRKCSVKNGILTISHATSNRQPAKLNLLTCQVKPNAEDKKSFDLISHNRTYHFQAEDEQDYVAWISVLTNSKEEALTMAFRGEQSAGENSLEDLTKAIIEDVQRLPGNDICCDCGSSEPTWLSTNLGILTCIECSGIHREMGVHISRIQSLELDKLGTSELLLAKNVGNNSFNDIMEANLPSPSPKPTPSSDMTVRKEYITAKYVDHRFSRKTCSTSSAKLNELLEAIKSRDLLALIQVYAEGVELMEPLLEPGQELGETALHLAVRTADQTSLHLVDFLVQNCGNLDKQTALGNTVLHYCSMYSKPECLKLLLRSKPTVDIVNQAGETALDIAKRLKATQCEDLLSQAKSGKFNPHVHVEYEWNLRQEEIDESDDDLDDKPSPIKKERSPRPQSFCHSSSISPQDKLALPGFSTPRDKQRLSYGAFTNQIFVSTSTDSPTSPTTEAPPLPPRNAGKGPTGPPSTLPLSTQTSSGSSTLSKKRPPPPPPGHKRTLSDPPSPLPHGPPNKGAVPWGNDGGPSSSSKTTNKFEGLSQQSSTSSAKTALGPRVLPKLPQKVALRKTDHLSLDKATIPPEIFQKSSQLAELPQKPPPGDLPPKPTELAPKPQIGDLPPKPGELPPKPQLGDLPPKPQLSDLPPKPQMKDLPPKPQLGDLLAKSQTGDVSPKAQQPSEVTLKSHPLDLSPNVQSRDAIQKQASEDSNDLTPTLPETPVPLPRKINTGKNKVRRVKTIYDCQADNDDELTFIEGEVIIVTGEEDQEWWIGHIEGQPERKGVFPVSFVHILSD
UniProt Q6PL18: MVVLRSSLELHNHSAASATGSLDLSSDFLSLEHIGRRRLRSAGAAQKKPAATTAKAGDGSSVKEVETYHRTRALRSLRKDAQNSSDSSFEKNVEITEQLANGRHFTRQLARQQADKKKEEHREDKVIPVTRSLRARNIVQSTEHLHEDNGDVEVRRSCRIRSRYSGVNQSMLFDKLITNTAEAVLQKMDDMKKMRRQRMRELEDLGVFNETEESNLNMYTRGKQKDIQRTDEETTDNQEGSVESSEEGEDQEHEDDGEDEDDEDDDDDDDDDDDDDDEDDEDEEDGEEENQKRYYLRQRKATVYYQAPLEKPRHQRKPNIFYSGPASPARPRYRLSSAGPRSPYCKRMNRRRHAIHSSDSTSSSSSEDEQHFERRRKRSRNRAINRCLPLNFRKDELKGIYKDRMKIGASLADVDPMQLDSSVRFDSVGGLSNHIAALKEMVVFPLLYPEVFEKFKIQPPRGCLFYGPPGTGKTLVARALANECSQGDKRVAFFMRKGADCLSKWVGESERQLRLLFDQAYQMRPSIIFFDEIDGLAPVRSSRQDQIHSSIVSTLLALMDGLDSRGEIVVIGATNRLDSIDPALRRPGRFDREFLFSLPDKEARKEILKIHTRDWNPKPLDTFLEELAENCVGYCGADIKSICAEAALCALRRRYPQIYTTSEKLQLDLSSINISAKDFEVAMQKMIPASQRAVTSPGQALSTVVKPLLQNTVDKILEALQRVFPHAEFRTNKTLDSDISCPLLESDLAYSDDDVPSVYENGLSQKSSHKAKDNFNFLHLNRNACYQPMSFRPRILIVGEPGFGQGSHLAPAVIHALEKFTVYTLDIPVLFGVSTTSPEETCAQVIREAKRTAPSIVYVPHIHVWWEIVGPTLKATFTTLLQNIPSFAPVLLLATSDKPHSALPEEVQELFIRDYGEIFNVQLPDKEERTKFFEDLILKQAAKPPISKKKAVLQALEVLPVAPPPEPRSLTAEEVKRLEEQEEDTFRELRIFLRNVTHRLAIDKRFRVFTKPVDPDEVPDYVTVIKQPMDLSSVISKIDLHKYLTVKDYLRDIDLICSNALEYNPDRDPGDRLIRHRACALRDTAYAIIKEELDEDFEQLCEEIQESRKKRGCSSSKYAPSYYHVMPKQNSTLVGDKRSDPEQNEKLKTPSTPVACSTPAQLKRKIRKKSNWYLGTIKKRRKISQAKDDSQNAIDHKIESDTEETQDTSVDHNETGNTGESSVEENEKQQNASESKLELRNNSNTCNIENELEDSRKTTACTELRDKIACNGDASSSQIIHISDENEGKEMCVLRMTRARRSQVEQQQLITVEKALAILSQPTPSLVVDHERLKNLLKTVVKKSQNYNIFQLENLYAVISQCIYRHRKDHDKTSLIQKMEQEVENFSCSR
UniProt P17544: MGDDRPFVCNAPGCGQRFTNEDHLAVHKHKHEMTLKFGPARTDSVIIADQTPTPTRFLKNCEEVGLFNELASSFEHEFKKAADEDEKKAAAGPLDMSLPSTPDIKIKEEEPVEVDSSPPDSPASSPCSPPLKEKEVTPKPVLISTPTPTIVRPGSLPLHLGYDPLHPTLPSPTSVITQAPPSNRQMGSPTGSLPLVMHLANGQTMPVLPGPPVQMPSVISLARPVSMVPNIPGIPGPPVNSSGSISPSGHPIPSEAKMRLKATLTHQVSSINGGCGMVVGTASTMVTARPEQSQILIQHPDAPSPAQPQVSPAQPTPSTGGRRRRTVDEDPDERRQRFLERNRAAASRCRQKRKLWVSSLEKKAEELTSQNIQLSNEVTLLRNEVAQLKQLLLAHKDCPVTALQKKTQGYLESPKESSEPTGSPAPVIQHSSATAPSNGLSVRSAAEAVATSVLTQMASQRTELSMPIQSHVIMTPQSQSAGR

The other results are listed elsewhere or left out.

Compound in the assay: CC1Cc2ccccc2N1C(=O)C1CCCN(C1)C(=O)CCl (mixture of isomers) [TRIM25 ligand 11 (diastereomer mixture)]
The experiment in a line: probe-labelled cysteine peptide fold change vs DMSO (competition) (log2 fold change); higher = less target engagement (more negative = stronger competition). Particulars: THP-1, incubation time: 4 h.
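Note: competitive chemoproteomic profiling in live THP-1 cells with an iodoacetamide desthiobiotin (IA-DTB) probe, comparing probe-labelled peptide intensities in compound-treated cells against DMSO-treated controls.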

On to “ATAD2B_Q9ULI0_816_TPEESCAQIFR (UniProt Q9ULI0)”, for which the “probe-labelled cysteine peptide fold change” value is 0.0176 (10 µM) and -0.039 (50 µM).

On to “ATP2B1_P20020_547_TECALLGLLLDLKR (UniProt P20020)”, for which the “probe-labelled cysteine peptide fold change” value is, setting by setting: (10 µM) -0.0804; (50 µM) -0.286.

With “ATP6V0A1_Q93050_58_CEEMDRK (UniProt Q93050)”, the “probe-labelled cysteine peptide fold change” value by setting is: (10 µM) 0.00168; (50 µM) 0.0322.

As for “ATG3_Q9NT62_259+264_TVTIENHPHLPPPPMCSVHPCR (UniProt Q9NT62)”, the “probe-labelled cysteine peptide fold change” value is, setting by setting: (10 µM) -0.0491; (50 µM) -0.27.

Take “ATP6V1B2_P21281_258_SDFEENGSMDNVCLFLNLANDPTIER (UniProt P21281)”: the “probe-labelled cysteine peptide fold change” value is -0.196 (10 µM) and -0.0904 (50 µM).

In the case of “ATL2_Q8NHH9_293_HIHNCFSNLGCFLLPHPGLK (UniProt Q8NHH9)”, the “probe-labelled cysteine peptide fold change” value is -0.118 (10 µM) and -0.0972 (50 µM).

As to “ATP2B4_P23634_55_DALTQINVHYGGVQNLCSR (UniProt P23634)”, the “probe-labelled cysteine peptide fold change” value (10 µM) worked out at 0.0169 and the “probe-labelled cysteine peptide fold change” value (50 µM) is -0.16.

“ATG16L1_Q676U5_145_IAECLQTISDLETECLDLR (UniProt Q676U5)”: the “probe-labelled cysteine peptide fold change” value is, setting by setting: (10 µM) 0.0275; (50 µM) -0.0177.

Regarding “ATM_Q13315_353_ENLIELMADICHQVFNEDTR (UniProt Q13315)”, the “probe-labelled cysteine peptide fold change” value reads like this: (10 µM) -0.368; (50 µM) -0.329.

“ATP1A1_P05023_374_NLEAVETLGSTSTICSDK (UniProt P05023)”: the “probe-labelled cysteine peptide fold change” value is, setting by setting: (10 µM) 0.12; (50 µM) 0.0529.

Consider “ATP5S_Q99766_134_CHYIEDDCLLR (UniProt Q99766)”, for which the “probe-labelled cysteine peptide fold change” value by setting is: (10 µM) -0.0886; (50 µM) 0.0874.

For “ATM_Q13315_2801_YRPNDFSAFQCQK (UniProt Q13315)”, the “probe-labelled cysteine peptide fold change” value by setting is: (10 µM) -0.029; (50 µM) -0.0597.

For the target “ASAP1_Q9ULH1_557_TCSTSSAK (UniProt Q9ULH1)”, the “probe-labelled cysteine peptide fold change” value reads like this: (10 µM) 0.0412; (50 µM) 0.0216.

Turning to “ATG7_O95352_298_LPEMAFSPDCPK (UniProt O95352)”, the “probe-labelled cysteine peptide fold change” value is, setting by setting: (10 µM) -0.028; (50 µM) -0.0957.

On to “ATP13A1_Q9HD20_648_LGSTDLCYIAAVK (UniProt Q9HD20)”, for which the “probe-labelled cysteine peptide fold change” value was determined as 0.0558 (10 µM) and 0.0185 (50 µM).

For the target “ASAP1_Q9ULH1_627_TADQTSLHLVDFLVQNCGNLDK (UniProt Q9ULH1)”, the “probe-labelled cysteine peptide fold change” value is, setting by setting: (10 µM) -0.147; (50 µM) -0.263.

On to “ATOX1_O00244_41_VCIESEHSMDTLLATLKK (UniProt O00244)”, for which the “probe-labelled cysteine peptide fold change” value was -0.138 (10 µM) and -0.166 (50 µM).

Take “ATF2_P15336_418_DCPVTAMQK (UniProt P15336)”: the “probe-labelled cysteine peptide fold change” value is, setting by setting: (10 µM) -0.211; (50 µM) -0.349.

“ATAD2_Q6PL18_484_ALANECSQGDKR (UniProt Q6PL18)”: the “probe-labelled cysteine peptide fold change” value was -0.121 (10 µM) and 0.0155 (50 µM).

For “ASH2L_Q9UBL3_362_LELDCWAGKPIPGDLYR (UniProt Q9UBL3)”, the “probe-labelled cysteine peptide fold change” value stood at 0.0773 (10 µM) and 0.173 (50 µM).

For the target “ATG2B_Q96BY7_1750_KSPGADVTCSLPR (UniProt Q96BY7)”, the “probe-labelled cysteine peptide fold change” value is 0.0995 (10 µM) and -0.0451 (50 µM).

“ASS1_P00966_331_FAELVYTGFWHSPECEFVR (UniProt P00966)”: the “probe-labelled cysteine peptide fold change” value by setting is: (10 µM) 0.0803; (50 µM) 0.0505.

With “ASPSCR1_Q9BZE9_127_ECLQHPGGATPVCVYTR (UniProt Q9BZE9)”, the “probe-labelled cysteine peptide fold change” value runs as follows: (10 µM) 0.0747; (50 µM) 0.143.

Take “ATRX_P46100_1242_IKPVTENLVLSSHTGFCQSSGDEALSK (UniProt P46100)”: the “probe-labelled cysteine peptide fold change” value runs as follows: (10 µM) 0.11; (50 µM) -0.37.

Consider “ATG9A_Q7Z3C6_331_CWSLYGR (UniProt Q7Z3C6)”, for which the “probe-labelled cysteine peptide fold change” value by setting is: (10 µM) 0.00962; (50 µM) 0.0279.

In the case of “ATRN_O75882_657_SEAACLAAGPGIR (UniProt O75882)”, the “probe-labelled cysteine peptide fold change” value reads like this: (10 µM) 0.0494; (50 µM) 0.0322.

For the target “ARRB1_P49407_59_RVYVTLTCAFR (UniProt P49407)”, the “probe-labelled cysteine peptide fold change” value (10 µM) is -0.251 and the “probe-labelled cysteine peptide fold change” value (50 µM) was -0.0834.

With “ATF7IP_Q6VMQ6_78_DKEEVNGIEEICFDPEGSK (UniProt Q6VMQ6)”, the “probe-labelled cysteine peptide fold change” value runs as follows: (10 µM) -0.0878; (50 µM) -0.0558.

In the case of “ATP2A2_P16615_669_DACLNAR (UniProt P16615)”, the “probe-labelled cysteine peptide fold change” value reads like this: (10 µM) -0.0508; (50 µM) -0.0397.

As for “ASPM_Q8IZT6_51_SPFLCFGDVLLGASR (UniProt Q8IZT6)”, the “probe-labelled cysteine peptide fold change” value turned out to be 0.0183 (10 µM) and 0.0584 (50 µM).

Take “ATM_Q13315_2323_KLDASCAANNPSLK (UniProt Q13315)”: the “probe-labelled cysteine peptide fold change” value was -0.0238 (10 µM) and -0.0299 (50 µM).

As for “ATG2A_Q2TAZ0_698+715_SELSSGPGPPVPTHLELTCSDLHGIYEDGGKPPVPCLR (UniProt Q2TAZ0)”, the “probe-labelled cysteine peptide fold change” value is 0.0924 (10 µM) and -0.0139 (50 µM).

In the case of “ATP13A1_Q9HD20_755_VVMITGDNPLTACHVAQELHFIEK (UniProt Q9HD20)”, the “probe-labelled cysteine peptide fold change” value (10 µM) came out at 0.203 and the “probe-labelled cysteine peptide fold change” value (50 µM) worked out at 0.0608.

“ATAD2_Q6PL18_785_NACYQPMSFRPR (UniProt Q6PL18)”: the “probe-labelled cysteine peptide fold change” value (10 µM) was -0.109 and the “probe-labelled cysteine peptide fold change” value (50 µM) is -0.0934.

On to “ATG2A_Q2TAZ0_811_CSLEVILPSVHIFLPSK (UniProt Q2TAZ0)”, for which the “probe-labelled cysteine peptide fold change” value by setting is: (10 µM) 0.0246; (50 µM) 0.0488.

As for “ATF7_P17544_409_DCPVTALQK (UniProt P17544)”, the “probe-labelled cysteine peptide fold change” value is -0.17 (10 µM) and -0.184 (50 µM).

With “ATP2A1_O14983_561_CLALATR (UniProt O14983)”, the “probe-labelled cysteine peptide fold change” value (10 µM) is -0.0778 and the “probe-labelled cysteine peptide fold change” value (50 µM) came out at 0.0181.
